Results from publication PMC3532225.
For at least one entry, the source does not settle the construct or the ends of the probe. Results from cells or extracts need not show a direct contact. For some assays here: Weaker means in comparison with the reference protein, sequence or condition of that experiment.

Experiments:
[1] = target: STAT1 WT-HA (UniProt P42224); experiment: pull-down (oligoprecipitation, immunoblot); conditions: biotin, Lysate diluted 4-fold: 100 mM Tris-HCl pH 7.5, ~75 mM NaCl, 0.2 mM EDTA, 1 mM DTT, 1 mM NaF, Triton X-100, glycerol, 2 h binding (temperature not stated for this step), protein in a lysate after overexpression, protein details: HA, label: biotin
[2] = target: STAT1 E705Q-HA (UniProt P42224); experiment: pull-down (oligoprecipitation, immunoblot); conditions: IFN-g + osmotic shock, SUMO-1 co-expressed; biotin; Lysate diluted 4-fold: 100 mM Tris-HCl pH 7.5, ~75 mM NaCl, 0.2 mM EDTA, 1 mM DTT, 1 mM NaF, Triton X-100, glycerol; 2 h binding (temperature not stated for this step); protein in a lysate after overexpression; protein details: HA; label: biotin
[3] = IFN-g + osmotic shock, SUMO-1 co-expressed

Sequence | binding result [1, 3] | binding result ([1]; SUMO-1 overexpression vs none) | binding result [2]
GGATCCCAACAGCTTGATTTCCCCGAAATGACGGCA (double strand) [Irf-1 GAS oligo] | binds | binds more weakly | binds
GGATCCTACTTTCAGTTTCATATTACTCTAAAT (double strand) [Gbp-1 GAS oligo] | binds | – | binds
